Source: PubChem BioAssay (EPA / NIEHS)
This list was built around the results that the source calls inconclusive (neither active nor inactive); the mix of calls is not that of the screen. For some of these results: Potencies beside an inconclusive call are fits to weak or partial responses and may not hold up. Active and inactive are the calls of the source. How the source made its calls: active means hit-call score of the fitted dose curve at least 0.9, where 1 is the maximum; inconclusive means response in the unintended direction; inactive means score below 0.9.

Chains of the proteins cited; added tags and fusions are not shown. Lines headed by an entry give the natural chain unless they say otherwise; changes in a name come on top.
UniProt P33261, whole entry, looked up: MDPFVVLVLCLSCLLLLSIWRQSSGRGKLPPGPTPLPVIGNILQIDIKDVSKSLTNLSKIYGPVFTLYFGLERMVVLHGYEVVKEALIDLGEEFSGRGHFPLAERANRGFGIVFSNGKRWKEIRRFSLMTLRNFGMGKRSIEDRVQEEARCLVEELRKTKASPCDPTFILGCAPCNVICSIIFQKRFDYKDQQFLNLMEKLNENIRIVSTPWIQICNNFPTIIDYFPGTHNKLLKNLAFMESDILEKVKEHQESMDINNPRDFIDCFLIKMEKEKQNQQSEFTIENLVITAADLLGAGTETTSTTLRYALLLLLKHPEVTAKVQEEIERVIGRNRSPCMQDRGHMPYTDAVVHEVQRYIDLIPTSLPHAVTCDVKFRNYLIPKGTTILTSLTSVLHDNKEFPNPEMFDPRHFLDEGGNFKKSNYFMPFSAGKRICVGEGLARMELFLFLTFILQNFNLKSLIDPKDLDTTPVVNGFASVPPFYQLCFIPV
UniProt P11712, whole entry, looked up: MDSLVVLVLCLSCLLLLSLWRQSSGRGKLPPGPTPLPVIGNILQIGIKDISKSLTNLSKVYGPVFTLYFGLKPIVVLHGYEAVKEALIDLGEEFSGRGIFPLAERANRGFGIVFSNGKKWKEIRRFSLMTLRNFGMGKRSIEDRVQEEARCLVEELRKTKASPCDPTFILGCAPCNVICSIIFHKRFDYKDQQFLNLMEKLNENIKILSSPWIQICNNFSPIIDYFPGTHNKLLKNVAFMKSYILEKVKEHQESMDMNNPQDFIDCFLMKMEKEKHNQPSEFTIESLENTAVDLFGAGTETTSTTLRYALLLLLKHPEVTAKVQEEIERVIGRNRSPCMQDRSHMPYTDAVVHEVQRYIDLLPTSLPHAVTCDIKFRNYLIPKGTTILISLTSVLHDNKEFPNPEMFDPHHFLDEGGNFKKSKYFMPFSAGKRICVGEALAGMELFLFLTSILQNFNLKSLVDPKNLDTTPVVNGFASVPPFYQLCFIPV
UniProt P04406: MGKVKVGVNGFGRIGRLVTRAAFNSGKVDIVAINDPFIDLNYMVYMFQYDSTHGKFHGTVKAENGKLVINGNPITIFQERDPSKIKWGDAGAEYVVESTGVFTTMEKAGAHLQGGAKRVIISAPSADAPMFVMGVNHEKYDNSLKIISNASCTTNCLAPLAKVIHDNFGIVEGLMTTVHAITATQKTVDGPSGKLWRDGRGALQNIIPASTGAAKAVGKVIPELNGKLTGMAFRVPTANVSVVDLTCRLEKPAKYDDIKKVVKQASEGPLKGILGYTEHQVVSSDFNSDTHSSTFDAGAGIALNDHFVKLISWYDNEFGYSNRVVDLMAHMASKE
UniProt Q9UNQ0: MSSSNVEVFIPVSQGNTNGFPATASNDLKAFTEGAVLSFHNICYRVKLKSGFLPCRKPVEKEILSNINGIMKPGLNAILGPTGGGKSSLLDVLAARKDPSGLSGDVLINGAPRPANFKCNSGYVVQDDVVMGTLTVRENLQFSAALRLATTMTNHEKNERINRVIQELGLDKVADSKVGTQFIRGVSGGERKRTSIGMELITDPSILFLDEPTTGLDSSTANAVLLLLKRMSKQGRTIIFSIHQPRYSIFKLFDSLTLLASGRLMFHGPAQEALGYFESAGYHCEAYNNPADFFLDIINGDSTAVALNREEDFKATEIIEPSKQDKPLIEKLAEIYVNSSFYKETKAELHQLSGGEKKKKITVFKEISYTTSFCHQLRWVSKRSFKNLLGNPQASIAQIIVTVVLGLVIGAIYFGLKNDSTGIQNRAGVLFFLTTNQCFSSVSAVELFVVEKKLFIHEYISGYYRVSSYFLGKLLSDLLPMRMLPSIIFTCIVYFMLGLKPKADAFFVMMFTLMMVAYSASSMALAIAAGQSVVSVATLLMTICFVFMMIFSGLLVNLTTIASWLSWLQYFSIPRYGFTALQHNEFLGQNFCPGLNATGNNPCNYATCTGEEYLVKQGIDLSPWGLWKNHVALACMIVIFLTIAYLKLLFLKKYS
UniProt P08684, whole entry, looked up: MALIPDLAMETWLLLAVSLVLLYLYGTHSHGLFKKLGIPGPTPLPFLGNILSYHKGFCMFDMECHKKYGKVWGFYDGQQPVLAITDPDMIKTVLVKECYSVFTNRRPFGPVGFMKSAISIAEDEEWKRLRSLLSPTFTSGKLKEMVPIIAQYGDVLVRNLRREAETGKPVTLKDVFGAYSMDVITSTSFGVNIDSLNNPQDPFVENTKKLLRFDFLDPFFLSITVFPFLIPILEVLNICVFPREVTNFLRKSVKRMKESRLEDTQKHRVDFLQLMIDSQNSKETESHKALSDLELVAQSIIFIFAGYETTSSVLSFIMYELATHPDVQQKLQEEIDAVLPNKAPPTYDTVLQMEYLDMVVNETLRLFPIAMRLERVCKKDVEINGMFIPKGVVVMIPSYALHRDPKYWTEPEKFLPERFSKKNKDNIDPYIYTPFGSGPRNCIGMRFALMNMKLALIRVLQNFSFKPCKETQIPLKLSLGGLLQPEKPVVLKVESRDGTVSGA
UniProt P20813: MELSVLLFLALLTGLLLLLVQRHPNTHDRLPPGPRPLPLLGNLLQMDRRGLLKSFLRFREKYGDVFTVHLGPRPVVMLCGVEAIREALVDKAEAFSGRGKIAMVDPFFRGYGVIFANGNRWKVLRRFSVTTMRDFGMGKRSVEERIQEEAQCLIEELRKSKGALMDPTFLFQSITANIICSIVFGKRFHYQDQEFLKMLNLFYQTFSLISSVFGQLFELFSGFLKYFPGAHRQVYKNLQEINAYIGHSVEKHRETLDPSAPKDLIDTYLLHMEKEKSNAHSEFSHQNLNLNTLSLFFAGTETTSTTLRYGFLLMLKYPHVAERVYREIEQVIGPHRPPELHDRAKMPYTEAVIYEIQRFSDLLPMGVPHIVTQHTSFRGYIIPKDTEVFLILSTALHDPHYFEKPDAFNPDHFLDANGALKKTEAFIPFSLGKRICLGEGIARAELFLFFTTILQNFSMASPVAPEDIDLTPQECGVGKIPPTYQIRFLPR

Columns and labels:
[1] = read-out: Cytochrome P450 2C19 (Homo sapiens) (UniProt P33261); test: CLD_CYP2C19_24hr: CellzDirect (CLD) Gene Expression Assay for xenobiotic metabolism (CYP2C19) at 24 hours (AID 2283687)
In short: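 Primary human hepatocytes (two donor preparations) dosed daily with fresh test chemical in 0.2% DMSO vehicle; CYP2C19 mRNA induction measured at 24 h by quantitative nuclease protection assay with chemiluminescence, fitted for gain of signal versus DMSO.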

[2] = read-out: Cytochrome P450 2C9 (Homo sapiens) (UniProt P11712); test: CLD_CYP2C9_24hr: CellzDirect (CLD) Gene Expression Assay for xenobiotic metabolism (CYP2C9) at 24 hours (AID 2283688);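 on AC50: potency for induction meaning a rise in CYP2C9 mRNA over DMSO vehicle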
In short: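 Primary human hepatocytes from two donor preparations, dosed daily for two days at multiple concentrations; vehicle 0.2% DMSO. CYP2C9 mRNA induction at 24 h measured by qNPA chemiluminescence relative to DMSO; cytotoxicity annotated from morphology.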

[3] = read-out: organic anion transporter (SLCO1B1), SLCO1B1 (gene 10599); test: CLD_SLCO1B1_24hr: CellzDirect (CLD) Gene Expression Assay for organic anion transporter (SLCO1B1) at 24 hours (AID 2283690)
In short: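 Primary human hepatocytes (two donor preparations) dosed daily for two days with chemicals at multiple concentrations, 0.2% DMSO vehicle. SLCO1B1 mRNA at 24 h measured by qNPA chemiluminescence; induction fitted relative to DMSO.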

[4] = read-out: HMG-CoA synthase (HMGCS2), HMGCS2 (gene 3158); test: CLD_HMGCS2_24hr: CellzDirect (CLD) Gene Expression Assay for HMG-CoA synthase (HMGCS2) at 24 hours (AID 2283691)
In short: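 Primary human hepatocytes from two donor preparations, dosed daily with fresh solutions; vehicle 0.2% DMSO, 24 h harvest. HMGCS2 mRNA quantified by qNPA with S1 nuclease digestion and chemiluminescence; gain fitted versus DMSO, cytotoxicity annotated by morphology.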

[5] = read-out: Glyceraldehyde-3-phosphate dehydrogenase (Homo sapiens) (UniProt P04406); test: CLD_GAPDH_24hr: CellzDirect (CLD) Gene Expression Assay for Baseline Control (Glyceraldehyde 3-phosphate dehydrogenase) at 24 hours (AID 2283692)
In short: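 Primary human hepatocytes (two donor preparations) dosed daily for two days, 0.2% DMSO vehicle; GAPDH mRNA measured at 24 h by qNPA chemiluminescence as a background control, gain-of-signal fitted against DMSO.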

[6] = read-out: alkyl and aryl transferase (GSTA2), GSTA2 (gene 2939); test: CLD_GSTA2_24hr: CellzDirect (CLD) Gene Expression Assay for alkyl and aryl transferase (GSTA2) at 24 hours (AID 2283693)
In short: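 Primary human hepatocytes (two donor preparations) dosed daily for two days with chemicals at multiple concentrations (vehicle 0.2% DMSO); GSTA2 mRNA at 24 h measured by qNPA chemiluminescence, gain-of-signal versus DMSO.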

[7] = read-out: ABC Transporter (ABCB11), ABCB11 (gene 8647); test: CLD_ABCB11_48hr: CellzDirect (CLD) Gene Expression Assay for ABC Transporter (ABCB11) at 48 hours (AID 2283697)
In short: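 Primary human hepatocytes from two donor preparations dosed daily for two days at multiple concentrations; 0.2% DMSO vehicle. ABCB11 mRNA at 48 h by quantitative nuclease protection assay, chemiluminescence; fitted for induction versus DMSO.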

[8] = read-out: Cytochrome P450 2C19 (Homo sapiens) (UniProt P33261); test: CLD_CYP2C19_48hr: CellzDirect (CLD) Gene Expression Assay for xenobiotic metabolism (CYP2C19) at 48 hours (AID 2283700)
In short: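 Primary human hepatocytes (two donor preparations) dosed daily for two days, harvested at 48 h; CYP2C19 mRNA induction measured by qNPA chemiluminescence. Gain-of-signal fitted relative to 0.2% DMSO vehicle as baseline.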

[9] = CLD_ACTIN_48hr: CellzDirect (CLD) Gene Expression Assay for Baseline Control (Actin) at 48 hours (AID 2283702)
In short: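 Primary human hepatocytes (two donor preparations) dosed daily for two days with ToxCast chemicals at multiple concentrations versus 0.2% DMSO vehicle; harvested at 48 h. Actin mRNA measured as a background control by quantitative nuclease protection assay with chemiluminescence.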

[10] = read-out: Broad substrate specificity ATP-binding cassette transporter ABCG2 (Homo sapiens) (UniProt Q9UNQ0); test: CLD_ABCG2_48hr: CellzDirect (CLD) Gene Expression Assay for ABC Transporter (ABCG2) at 48 hours (AID 2283704);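 on AC50: potency for induction of ABCG2 mRNA above the DMSO baseline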
In short: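 Primary human hepatocytes from two donors, dosed daily for 2 days, 0.2% DMSO vehicle, several concentrations. ABCG2 mRNA at 48 h by qNPA chemiluminescence, gain fitted versus DMSO; cytotoxicity flagged by morphology.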

[11] = read-out: xenobiotic metabolism (CYP1A1), CYP1A1 (gene 1543); test: CLD_CYP1A1_48hr: CellzDirect (CLD) Gene Expression Assay for xenobiotic metabolism (CYP1A1) at 48 hours (AID 2283705)
In short: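 Primary human hepatocytes from two donors dosed daily for two days at multiple concentrations, 0.2% DMSO vehicle; CYP1A1 mRNA induction at 48 h by qNPA chemiluminescence. Cytotoxicity noted by phase-contrast morphology.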

[12] = read-out: Glyceraldehyde-3-phosphate dehydrogenase (Homo sapiens) (UniProt P04406); test: CLD_GAPDH_48hr: CellzDirect (CLD) Gene Expression Assay for Baseline Control (Glyceraldehyde 3-phosphate dehydrogenase) at 48 hours (AID 2283706)
In short: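 Primary human hepatocytes dosed daily for two days with fresh chemical at multiple concentrations, 0.2% DMSO vehicle; GAPDH mRNA measured at 48 h by quantitative nuclease protection assay with chemiluminescence, fitted upward relative to DMSO as background control.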

[13] = read-out: Broad substrate specificity ATP-binding cassette transporter ABCG2 (Homo sapiens) (UniProt Q9UNQ0); test: CLD_ABCG2_24hr: CellzDirect (CLD) Gene Expression Assay for ABC Transporter (ABCG2) at 24 hours (AID 2283685);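 on AC50: AC50 is for induction meaning signal gain over DMSO vehicle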
In short: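 Primary human hepatocytes were dosed daily with ToxCast chemicals at multiple concentrations (vehicle 0.2% DMSO). ABCG2 mRNA was measured at 24 h by qNPA chemiluminescence; induction was scored as gain of signal versus DMSO.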

[14] = read-out: organic anion transporter (SLCO1B1), SLCO1B1 (gene 10599); test: CLD_SLCO1B1_48hr: CellzDirect (CLD) Gene Expression Assay for organic anion transporter (SLCO1B1) at 48 hours (AID 2283707)
In short: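 Primary human hepatocytes from two donor preparations dosed daily for two days with multiple concentrations, 0.2% DMSO vehicle. SLCO1B1 mRNA at 48 h by quantitative nuclease protection assay, chemiluminescence; gain-of-signal fitted versus DMSO.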

[15] = read-out: alkyl and aryl transferase (GSTA2), GSTA2 (gene 2939); test: CLD_GSTA2_48hr: CellzDirect (CLD) Gene Expression Assay for alkyl and aryl transferase (GSTA2) at 48 hours (AID 2283708);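 further: active means mRNA induction above DMSO vehicle baseline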
In short: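 Primary human hepatocytes dosed daily for two days (0.2% DMSO vehicle), harvested at 48 h. GSTA2 mRNA induction measured by quantitative nuclease protection assay with chemiluminescent imaging, fitted for gain of signal relative to DMSO.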

[16] = read-out: Cytochrome P450 3A4 (Homo sapiens) (UniProt P08684); test: CLD_CYP3A4_24hr: CellzDirect (CLD) Gene Expression Assay for xenobiotic metabolism (CYP3A4) at 24 hours (AID 2283689)
In short: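 Primary human hepatocytes from two donors dosed daily with fresh compound for two days, 0.2% DMSO vehicle. CYP3A4 mRNA at 24 hr by qNPA chemiluminescence; gain-of-signal fit versus DMSO, cytotoxicity flagged by morphology.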

[17] = read-out: sulfotransferase (SULT2A), SULT2A1 (gene 6822); test: CLD_SULT2A_24hr: CellzDirect (CLD) Gene Expression Assay for sulfotransferase (SULT2A) at 24 hours (AID 2283694);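 further: potency for increased SULT2A1 mRNA level as induction over DMSO baseline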
In short: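 Primary human hepatocytes from two donor preparations were dosed daily with fresh solutions, vehicle 0.2% DMSO. At 24 h, lysates went to quantitative nuclease protection (qNPA) with S1 digestion and chemiluminescent readout. Cytotoxicity was annotated from phase-contrast morphology.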

[18] = read-out: Cytochrome P450 2B6 (Homo sapiens) (UniProt P20813); test: CLD_CYP2B6_48hr: CellzDirect (CLD) Gene Expression Assay for xenobiotic metabolism (CYP2B6) at 48 hours (AID 2283699);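 further: actives raise transcript level above DMSO so potency reflects induction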
In short: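 Primary human hepatocytes dosed daily for two days over multiple concentrations, 0.2% DMSO vehicle; CYP2B6 mRNA quantified at 48 h by qNPA chemiluminescence. Induction fitted as gain of signal versus DMSO; cytotoxicity annotated by morphology.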

[19] = read-out: ABC Transporter (ABCB1), ABCB1 (gene 5243); test: CLD_ABCB1_48hr: CellzDirect (CLD) Gene Expression Assay for ABC Transporter (ABCB1) at 48 hours (AID 2283695);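 further: potency for induction meaning increase of mRNA over DMSO vehicle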
In short: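 Primary human hepatocytes from two donor preparations dosed daily on two consecutive days with 0.2% DMSO vehicle. Harvest at 48 h. ABCB1 mRNA quantified by qNPA with chemiluminescence and fitted for gain of signal versus DMSO.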

Measured: AC50

C=CCOC(=O)C(C)(C)OC(=O)c1cc(-n2c(=O)cc(C(F)(F)F)n(C)c2=O)ccc1Cl
inconclusive: [3] 20 µM | [4] 20 µM | [6] 20 µM | [7] 36.7 µM
inactive: [1] | [2] | [5] | [8]

COc1cnc(OC)n2nc(NS(=O)(=O)c3c(OCC(F)F)cccc3C(F)(F)F)nc12
inconclusive: [2] 20 µM | [4] 38 µM | [5] 20 µM | [7] 0.557 µM | [10] 0.0184 µM | [12] 20 µM
inactive: [1] | [9] | [11]

COC(=O)c1ccccc1C(=O)OC
inconclusive: [13] 20 µM | [4] 20 µM | [8] 20 µM | [9] 20 µM | [11] 20 µM | [12] 20 µM
inactive: [7] | [10] | [14] | [15]

O=C1c2ccccc2C(=O)N1SC(Cl)(Cl)Cl
inactive: [7] | [8] | [9] | [15]
inconclusive: [1] 20 µM | [2] 0.000827 µM | [16] 20 µM | [4] 20 µM | [17] 3.97 µM | [18] 0.0007 µM | [11] 1.88 µM

CC1(C)C(C(=O)OC(C#N)c2cccc(Oc3ccccc3)c2)C1(C)C (stereo unspecified)
inactive: [2] | [4] | [6]
inconclusive: [1] 20 µM | [3] 3.97 µM | [7] 0.00986 µM | [9] 3.97 µM | [12] 20 µM | [14] 20 µM

Clc1ccccc1-c1nnc(-c2ccccc2Cl)nn1
inconclusive: [3] 20 µM | [4] 0.0011 µM | [5] 5.23 µM | [19] 0.161 µM | [8] 20 µM | [9] 0.198 µM | [12] 9.19 µM | [14] 20 µM
active: [16] 3.97 µM
inactive: [1] | [2] | [7]

Oc1cc(Cl)ccc1Oc1ccc(Cl)cc1Cl
inconclusive: [13] 0.00743 µM | [18] 0.0004 µM
inactive: [6] | [10] | [12] | [14] | [15]

Oc1ccccc1-c1ccccc1
inconclusive: [19] 20 µM | [9] 20 µM | [12] 20 µM
inactive: [13] | [4] | [5] | [7] | [8] | [14] | [15]

2 consecutive records out of the list so far:
Oc1cc(Cl)ccc1Oc1ccc(Cl)cc1Cl
inconclusive: [13] 0.00743 µM | [18] 0.0004 µM
inactive: [6] | [10] | [12] | [14] | [15]

Oc1ccccc1-c1ccccc1
inconclusive: [19] 20 µM | [9] 20 µM | [12] 20 µM
inactive: [13] | [4] | [5] | [7] | [8] | [14] | [15]
